Data: article PMC12730636
No constants are given. Whether binding was seen depends on the method and setting. Binding seen in cells or lysates may run through a third protein. Some binding calls cover weakened binding; strength is not graded here.

Chains of the proteins cited; added tags and fusions are not shown.
UniProt Q04656: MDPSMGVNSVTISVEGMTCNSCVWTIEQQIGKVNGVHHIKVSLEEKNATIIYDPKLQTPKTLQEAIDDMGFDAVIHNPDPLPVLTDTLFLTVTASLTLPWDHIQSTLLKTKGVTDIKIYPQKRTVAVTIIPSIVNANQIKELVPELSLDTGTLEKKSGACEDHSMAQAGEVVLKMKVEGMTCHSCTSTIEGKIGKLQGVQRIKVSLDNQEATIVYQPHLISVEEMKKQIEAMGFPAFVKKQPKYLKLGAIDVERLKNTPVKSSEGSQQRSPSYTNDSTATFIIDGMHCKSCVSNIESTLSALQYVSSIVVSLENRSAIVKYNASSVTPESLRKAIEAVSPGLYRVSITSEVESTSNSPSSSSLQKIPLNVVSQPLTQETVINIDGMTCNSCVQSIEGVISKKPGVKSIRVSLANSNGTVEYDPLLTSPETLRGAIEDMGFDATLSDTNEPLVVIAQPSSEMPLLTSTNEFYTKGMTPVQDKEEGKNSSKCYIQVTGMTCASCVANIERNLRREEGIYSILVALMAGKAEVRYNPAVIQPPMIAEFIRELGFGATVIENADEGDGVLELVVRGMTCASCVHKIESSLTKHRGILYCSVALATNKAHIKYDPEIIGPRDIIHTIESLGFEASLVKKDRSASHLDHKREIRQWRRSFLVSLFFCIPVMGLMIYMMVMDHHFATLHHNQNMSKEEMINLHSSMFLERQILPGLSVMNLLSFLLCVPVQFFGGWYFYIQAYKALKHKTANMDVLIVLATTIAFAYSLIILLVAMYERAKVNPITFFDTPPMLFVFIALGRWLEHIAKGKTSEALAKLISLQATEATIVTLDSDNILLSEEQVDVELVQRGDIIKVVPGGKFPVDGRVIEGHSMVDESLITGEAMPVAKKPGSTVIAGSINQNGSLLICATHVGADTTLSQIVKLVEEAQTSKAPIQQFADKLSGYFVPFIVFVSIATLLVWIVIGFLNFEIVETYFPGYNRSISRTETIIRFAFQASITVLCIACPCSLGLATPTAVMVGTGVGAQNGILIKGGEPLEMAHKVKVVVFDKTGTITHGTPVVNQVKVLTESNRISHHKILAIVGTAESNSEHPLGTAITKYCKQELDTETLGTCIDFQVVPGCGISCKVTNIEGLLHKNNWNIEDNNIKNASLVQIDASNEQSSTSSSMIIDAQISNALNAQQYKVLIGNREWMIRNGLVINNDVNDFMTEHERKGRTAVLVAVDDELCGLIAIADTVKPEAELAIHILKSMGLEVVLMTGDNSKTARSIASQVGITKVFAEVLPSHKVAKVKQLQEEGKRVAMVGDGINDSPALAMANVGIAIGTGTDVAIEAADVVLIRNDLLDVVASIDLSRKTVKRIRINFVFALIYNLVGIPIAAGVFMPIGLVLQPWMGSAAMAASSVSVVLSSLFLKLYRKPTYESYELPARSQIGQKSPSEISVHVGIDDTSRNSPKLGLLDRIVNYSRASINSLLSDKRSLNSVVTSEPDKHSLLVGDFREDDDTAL

Biological target: ATPase copper transporting alpha (ATP7A) (UniProt Q04656)
Assay: co-IP; co-immunoprecipitation of TRIM14 and ATP7A; bait, antibody, cells and buffer not described; n = 3

B1: tripartite motif-containing protein 14 (TRIM14) (protein, UniProt Q14142 1-442)
chain: MAGAATGSRTPGRSELVEGCGWRCPEHGDRVAELFCRRCRRCVCALCPVLGAHRGHPVGLALEAAVHVQKLSQECLKQLAIKKQQHIDNITQIEDATEKLKANAESSKTWLKGKFTELRLLLDEEEALAKKFIDKNTQLTLQVYREQADSCREQLDIMNDLSNRVWSISQEPDPVQRLQAYTATEQEMQQQMSLGELCHPVPLSFEPVKSFFKGLVEAVESTLQTPLDIRLKESINCQLSDPSSTKPGTLLKTSPSPERSLLLKYARTPTLDPDTMHARLRLSADRLTVRCGLLGSLGPVPVLRFDALWQVLARDCFATGRHYWEVDVQEAGAGWWVGAAYASLRRRGASAAARLGCNRQSWCLKRYDLEYWAFHDGQRSRLRPRDDLDRLGVFLDYEAGVLAFYDVTGGMSHLHTFRATFQEPLYPALRLWEGAISIPRLP
binding: binds
